Measurements taken from PubChem BioAssay AID493014 (National Center for Advancing Translational Sciences (NCATS), 2011).
Among all 340,000 compounds or so, about 170 (0.05%) were called active. This list was built around the results that the source calls inconclusive (neither active nor inactive); the mix of calls is not that of the screen. The call rests on the fitted dose curve; in most records, active means well fitted inhibition curve with a large enough effect in the signal ratio, with a control signal flat (not every such curve was filed as active); inconclusive means small, poorly fitted or top-dose-only effect, or effect the other way, or a change in a side signal; inactive means flat fitted curve, though single readings scatter; the % refers to the signal ratio. Where the call is inconclusive, the potency comes from a doubtful curve fit.

Assay: qHTS Assay to Find Inhibitors of Chronic Active B-Cell Receptor Signaling;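 on activity change, negative = inhibition: plate controls were basal doxycycline-induced cells for no effect and cells given 10 µM MG132 for full effect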
Details: ABC-DLBCL IkBa-CBG/CBR reporter, luminescence ratio (green luciferase fused to IkBa over red control in TMD8 lymphoma cells), 4 h; activity change, negative = inhibition: at 46.1 µM (top of the series) unless noted
Outline: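 Cell line TMD8 (human ABC DLBCL), stably expressing tet-inducible CBG68-IkBa fusion and CBR; IMDM/0.5% FBS; cpd up to 46 uM; dox induction, 4 h, 37C/5% CO2; dual luminescence; green/red ratio; MG132 control.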
Potency means the concentration at half of the fitted maximal effect.

| SMILES | Potency | activity change, negative = inhibition |
| --- | --- | --- |
| COc1cc(C=NCC2OCCc3ccccc32)cc(OC)c1 (stereo not given) | inconclusive: 3.16 µM [falling, single point] |  |
| O=C(Nc1ccccc1)c1ccc2c(c1)OCO2 | inconclusive: 25.9 µM [falling, partial curve] |  |
| COc1cccc(CNC(=O)CCNC(=O)N2CCn3c2nc2ccccc23)c1 |  | inactive |
| COc1ccc(CNc2n[nH]c(NCc3ccc(OC)c(OC)c3)n2)cc1OC |  | inconclusive: -6.56% |
| Cc1ccc2nc(N/C(=N/S(=O)(=O)c3ccc(F)cc3F)c3ccccc3)sc2c1 | inconclusive: 10 µM [falling, partial curve] |  |
| COc1ccc(S(=O)(=O)N(CC(=O)O)c2ccccn2)cc1 | inconclusive: 1.64 µM [falling, partial curve, poor fit] |  |
| COc1ccc(C(=O)N/N=C/c2c(CO)cnc(C)c2O)cc1 | inconclusive: 11.2 µM [falling, single point] |  |
| O=C(Nc1cccc(Cl)c1)OC1CCCCc2cccnc21 (stereo not given) |  | inactive |
| O=C(c1ccc(-n2cccc2)cc1)N1CCN(Cc2ccccc2)CC1 |  | inconclusive: -2.92% |
| CCCC(=O)OCCNc1cc(SCc2ccco2)c2nonc2c1[N+](=O)[O-] | inconclusive: 13 µM [falling, partial curve] |  |
| O=C(CSc1nnc(-c2ccc(O)cc2)o1)Nc1cccc(O)c1 | inconclusive: 17.8 µM [falling, partial curve] |  |
| C=CCOc1ccc(C(=O)n2cc(C(=O)OC)c3ccccc32)cc1 |  | inactive |
| Cc1ccc(C)c(CSc2nnc([C@@H]3CCCN3)o2)c1 |  | inactive |
| CC1(S(=O)(=O)O)CC(=O)c2ccccc2C1=O (stereo not given) | inconclusive: 3.98 µM [falling, partial curve, poor fit] |  |
| Cc1ccc(/C=C/C(=O)Nc2cccc3ncccc23)o1 | inconclusive: 23.1 µM [falling, partial curve] |  |
| Cc1ccc(C(=O)C(c2ccccc2)N2Cc3ccccc3C2=N)cc1 (stereo not given) |  | inactive |
| O=C(Oc1cccc2ccccc12)c1ccncc1 | inconclusive: 16.4 µM [falling, single point] |  |
| O=[N+]([O-])c1cccc2ccc(/C=C/c3cccc(Br)c3)nc12 |  | inconclusive: 16.1% |
| O=C(c1c(O)c2ccccc2oc1=O)C1CCC1 | inconclusive: 17.8 µM [falling, partial curve] |  |
| Nc1nnnn1/N=C/c1ccco1 |  | inconclusive: 11.2% |
| Cc1cc(C)cc(C(=O)/C=C2\NC(=O)CS2)c1 |  | inconclusive: 0.237% |
| CCNC(=S)Nc1nc2c(cc1C(=O)OCC)CCCC2 |  | inconclusive: 7.47% |
| O=C(O)c1cccc(NC(=O)C2C3C=CC(C3)C2C(=O)O)c1 (stereo not given) |  | inconclusive: 6.21% |
| C/C=N/NC(=O)CCNC(=O)c1ccccc1 |  | inactive |
| COc1ccc(C2CC(c3c(-c4ccccc4)c4cc(Cl)ccc4[nH]c3=O)=NN2S(C)(=O)=O)cc1 (stereo not given) |  | inactive |

Quoted at random: two entries already listed.

| SMILES | Potency | activity change, negative = inhibition |
| --- | --- | --- |
| O=C(c1ccc(-n2cccc2)cc1)N1CCN(Cc2ccccc2)CC1 |  | inconclusive: -2.92% |
| COc1cccc(CNC(=O)CCNC(=O)N2CCn3c2nc2ccccc23)c1 |  | inactive |

Additional compounds follow.

| SMILES | Potency | activity change, negative = inhibition |
| --- | --- | --- |
| COc1ccc(C(=O)Nc2cnc(NC(=O)c3cccs3)cc2C)cc1 |  | inconclusive: -15.5% |
| COc1ccc(OC)c(-c2csc(NC(=O)CSCC(=O)Nc3cc(C)on3)n2)c1 |  | inconclusive: -2.94% |
| Cn1cc(CNCc2cn(C)nc2-c2ccc(C3CCCCC3)cc2)cn1 |  | inconclusive: -27.4% |
| Cc1cc(C)c(C(=O)C(C)OC(=O)Cc2n[nH]c(=O)c3ccccc23)cc1C (stereo not given) |  | inactive |
| CC(C)(C)CN1CCC(Oc2cccc(C(=O)N3CCC[C@H]3CO)c2)CC1 |  | inactive |
| CC(C)CNC(=S)NNC(=O)c1ccc2c(c1)OCO2 | inconclusive: 29.1 µM [falling, single point] |  |
| CCCCN(C(=O)c1ccc(S(=O)(=O)N2CCC(C)CC2)cc1)C1CCS(=O)(=O)C1 (stereo not given) |  | inconclusive: -19.5% |
| CNC(=S)N/N=C/c1c(C)nn(-c2ccccc2)c1Cl | inconclusive: 20.6 µM [falling, single point] |  |
| O=C(Oc1cccc(Nc2ncnc3ccccc23)c1)c1ccccc1Cl | inconclusive: 25.9 µM [falling, single point] |  |
| Cc1nnc(NC(=O)c2ccc3c(c2)C(=O)N(CCC(C)C)C3=O)s1 |  | inconclusive: -12.9% |
| CCOC(=O)C(NC(=O)N(C)C)(Nc1sc(C)c(CC)c1C#N)C(F)(F)F (stereo not given) |  | inconclusive: -8.23% |
| O=C(C1CCN(S(=O)(=O)c2cccc3nsnc23)CC1)N1CCCc2ccccc21 |  | inconclusive: -11.4% |
| C[C@]12CC[C@H]3[C@@H](CCC4=CC(=O)CC[C@@]43C)[C@@H]1CC[C@@H]2C(=O)CO |  | inconclusive: 28.6% |
| C[n+]1cccc(C(=O)Nc2ccccc2)c1 |  | inactive |
| NCCNC(=O)Cc1ccc(NC(=O)Cc2ccc(Nc3ncnc4c3ncn4[C@@H]3O[C@H](CO)[C@@H](O)[C@H]3O)cc2)cc1 | inconclusive: 0.58 µM [falling, full curve] |  |
| Cc1ccc2cc(CN(Cc3ccco3)C(=O)NCc3ccccc3)c(=O)[nH]c2c1C | inconclusive: 18.4 µM [falling, single point] |  |
| Cc1ccc(OCCNCc2ccccc2)c(C)c1 |  | inconclusive: 4.74% |
| CC1CCCCC1N(C)C1CCN(C(=O)CNC(=O)/C=C/c2cccc(Cl)c2)CC1 (stereo not given) |  | inconclusive: -4.88% |
| O=C(N/N=C/c1cn(-c2ccccc2)nc1-c1cc2ccccc2o1)c1ccncc1 |  | inconclusive: 5.56% |
| O=C(O)c1cc(-c2ccc3c(c2)OCO3)nc2ccc(Br)cc12 | inconclusive: 31.6 µM [rising, single point] |  |
| CN(CC(=O)Nc1c(Cl)cccc1Cl)C(=O)c1cc(-c2cccs2)nn1-c1ccccc1 |  | inactive |
| COc1c(C)cccc1C(=O)NC(=S)Nc1cccc2nsnc12 | inconclusive: 15.8 µM [falling, single point] |  |
| O=C(NNC1=C(C(=O)C(F)(F)F)CCC1)c1ccncc1 | inconclusive: 22.4 µM [falling, single point] |  |
| CC(=O)OCC1=C(C(=O)O)N2C(=O)C(NC(=O)c3ccc(COc4ccc(Cl)cc4)o3)C2SC1 (stereo not given) |  | inactive |
| Cc1ccc(S(=O)(=O)N2CCOCC2)cc1NC(=O)CNCc1ccccc1Cl |  | inactive |

By substructure, those above with a COOH group.

| SMILES | Potency | activity change, negative = inhibition |
| --- | --- | --- |
| COc1ccc(S(=O)(=O)N(CC(=O)O)c2ccccn2)cc1 | inconclusive: 1.64 µM [falling, partial curve, poor fit] |  |
| O=C(O)c1cccc(NC(=O)C2C3C=CC(C3)C2C(=O)O)c1 (stereo not given) |  | inconclusive: 6.21% |
| O=C(O)c1cc(-c2ccc3c(c2)OCO3)nc2ccc(Br)cc12 | inconclusive: 31.6 µM [rising, single point] |  |
| CC(=O)OCC1=C(C(=O)O)N2C(=O)C(NC(=O)c3ccc(COc4ccc(Cl)cc4)o3)C2SC1 (stereo not given) |  | inactive |
